Measurements taken from PubChem BioAssay AID248 (DTP/NCI, 2004).
The list is a part of this screen's results and no random one: it gathers tests that were run many times, whatever their T/C, doses with no T/C, and many T/C values between a quarter and a half above the control. Other doses and runs of a compound stand elsewhere. T/C gives the treated animals as a percentage of the vehicle group. Some doses have a count of surviving animals in place of a T/C: the source files T/C as zero there, which appears to mark a toxic dose or a test without result, not a measured value. Some survivor counts are full or nearly so, which does not show that the dose was tolerated: the source hardly ever lists a survival T/C far under the control, and the zero likely stands for such cases as well. Counts of survivors are from the toxicity check (mostly the fifth day) where no day follows; animals may have died later. Schedule codes are those of the source, read here as Q, the interval in days (D) or hours (H), X, the number of doses. Some schedule codes hold Z or #, which are not explained here. Some molecules as drawn cover several salts, stereoisomers or complexes of the source; a dose is that of the sample tested. For survival time, this PubChem deposit counts one and a half times the control or more as active, and values a quarter to a half above the control carry no call in these data; other NCI protocols may use other cut-offs.

System: L1210 leukemia ip in BDF1 mice, survival T/C
Assay: NCI In Vivo Anticancer Drug Screen. Data for tumor model L1210 Leukemia (intraperitoneal) in B6D2F1 (BDF1) mice
Conditions: T/C endpoint: mean survival time, higher T/C = longer survival
[1] = dose: 100.0 mg/kg/injection, schedule: Q01DX009 (ip), vehicle: saline
[2] = dose: 200.0 mg/kg/injection, schedule: Q04DX003 (ip), vehicle: saline
[3] = dose: 400.0 mg/kg/injection, schedule: Q04DX003 (ip), vehicle: saline
[4] = dose: 200.0 mg/kg/injection, schedule: Q04DX003 (ip), vehicle: saline with Tween-80
[5] = dose: 400.0 mg/kg/injection, schedule: Q04DX003 (ip), vehicle: saline with Tween-80
[6] = dose: 100.0 mg/kg/injection, schedule: Q04DX003 (ip), vehicle: saline
[7] = dose: 100.0 mg/kg/injection, schedule: Q04DX003 (ip), vehicle: Klucel (hydroxypropylcellulose) (HPC)
[8] = dose: 200.0 mg/kg/injection, schedule: Q04DX003 (ip), vehicle: Klucel (hydroxypropylcellulose) (HPC)
[9] = dose: 400.0 mg/kg/injection, schedule: Q04DX003 (ip), vehicle: Klucel (hydroxypropylcellulose) (HPC)
[10] = dose: 400.0 mg/kg/injection, schedule: Q01DX009 (ip), vehicle: saline with Tween-80
[11] = dose: 400.0 mg/kg/injection, schedule: Q01DX009 (ip), vehicle: Klucel (hydroxypropylcellulose) (HPC)
[12] = dose: 100.0 mg/kg/injection, schedule: Q01DX009 (ip), vehicle: Klucel (hydroxypropylcellulose) (HPC)
[13] = dose: 200.0 mg/kg/injection, schedule: Q01DX009 (ip), vehicle: Klucel (hydroxypropylcellulose) (HPC)
[14] = dose: 200.0 mg/kg/injection, schedule: Q04DX002 (ip), vehicle: Klucel (hydroxypropylcellulose) (HPC)
[15] = dose: 200.0 mg/kg/injection, schedule: Q01DX009 (ip), vehicle: saline
[16] = dose: 400.0 mg/kg/injection, schedule: Q01DX009 (ip), vehicle: saline
[17] = dose: 200.0 mg/kg/injection, schedule: Q01DX001 (ip), vehicle: saline
[18] = dose: 400.0 mg/kg/injection, schedule: Q01DX001 (ip), vehicle: saline
[19] = dose: 400.0 mg/kg/injection, schedule: Q04DX002 (ip), vehicle: saline with Tween-80
[20] = dose: 400.0 mg/kg/injection, schedule: Q04DX002 (ip), vehicle: Klucel (hydroxypropylcellulose) (HPC)

CC[n+]1cccc2cc(NC(=O)c3ccc(NC(=O)c4ccc(C(=O)Nc5ccc6c(ccc[n+]6CC)c5)cc4)cc3)ccc21
survivor count (dose: 8.9 mg/kg/injection, schedule: Q01DX Z (ip), vehicle: carboxymethylcellulose (CMC)): 0 of 6 | survivor count (dose: 13.3 mg/kg/injection, schedule: Q01DX Z (ip), vehicle: carboxymethylcellulose (CMC)): 0 of 6 | survivor count (dose: 20.0 mg/kg/injection, schedule: Q01DX Z (ip), vehicle: carboxymethylcellulose (CMC)): 0 of 6 | survivor count (dose: 30.0 mg/kg/injection, schedule: Q01DX Z (ip), vehicle: carboxymethylcellulose (CMC)): 0 of 6 | survivor count (dose: 60.0 mg/kg/injection, schedule: Q01DX Z (ip), vehicle: carboxymethylcellulose (CMC)): 1 of 6 | survivor count (dose: 90.0 mg/kg/injection, schedule: Q01DX Z (ip), vehicle: carboxymethylcellulose (CMC)): 2 of 6 | survivor count (dose: 150.0 mg/kg/injection, schedule: Q01DX Z (ip), vehicle: carboxymethylcellulose (CMC)): 1 of 6

c1ccc2c(c1)CC1CCCCN1C2 (stereo unspecified)
survivor count (dose: 75.0 mg/kg/injection, schedule: Q01DX009 (ip), vehicle: Klucel (hydroxypropylcellulose) (HPC)): 3 of 6 | survivor count [1]: 0 of 6 | survivor count (dose: 115.0 mg/kg/injection, schedule: Q01DX009 (ip), vehicle: Klucel (hydroxypropylcellulose) (HPC)): 5 of 6 | survivor count (dose: 170.0 mg/kg/injection, schedule: Q01DX009 (ip), vehicle: Klucel (hydroxypropylcellulose) (HPC)): 0 of 6 | survivor count [2]: 1 of 6 | survivor count [3]: 0 of 6

C=C(c1cn(C(C)=O)c2ccccc12)c1cn(C(C)=O)c2ccccc12
survivor count [4]: 6 of 6 | survivor count [5]: 6 of 6

COc1ccc(N2CSC(=S)N(c3ccc(OC)cc3)C2)cc1
survivor count [6]: 6 of 6 | survivor count [2]: 6 of 6

O=C(CI)Nc1ccc(Br)cc1
survivor count (dose: 55.0 mg/kg/injection, schedule: Q01DX009 (ip), vehicle: Klucel (hydroxypropylcellulose) (HPC)): 2 of 6 | survivor count (dose: 80.0 mg/kg/injection, schedule: Q01DX009 (ip), vehicle: Klucel (hydroxypropylcellulose) (HPC)): 0 of 6

CN1CCCC(CC2c3ccccc3Sc3ccccc32)C1 (stereo unspecified)
survivor count (dose: 64.0 mg/kg/injection, schedule: Q01DX015 (ip), vehicle: carboxymethylcellulose (CMC)): 4 of 6

ClCCCN(CCCCl)c1ccc(C=Nc2cccc(Cl)c2)c(Cl)c1
survivor count [7]: 6 of 6 | survivor count [8]: 6 of 6 | survivor count [9]: 6 of 6

Cc1ccc(NC(N)=S)cc1C
survivor count (dose: 200.0 mg/kg/injection, schedule: Q01DX009 (ip), vehicle: saline with Tween-80): 0 of 6 | survivor count [10]: 0 of 6

CN(C)CC1CC(=O)C(CN(C)C)CC1=O (stereo unspecified)
survivor count (dose: 80.0 mg/kg/injection, schedule: Q01DX001 (ip), vehicle: saline): 1 of 6

O=C(NCCCl)Nc1c2ccccc2nc2ccccc12
survivor count [11]: 0 of 6

O=C1CCCCC1C(=O)C(F)(F)F (stereo unspecified)
survivor count (dose: 100.0 mg/kg/injection, schedule: Q04DX003 (ip), vehicle: other): 5 of 6 | survivor count (dose: 200.0 mg/kg/injection, schedule: Q04DX003 (ip), vehicle: other): 0 of 6 | survivor count (dose: 400.0 mg/kg/injection, schedule: Q04DX003 (ip), vehicle: other): 0 of 6

N#Cc1ncc(Cl)cc1[N+](=O)[O-]
survivor count (dose: 100.0 mg/kg/injection, schedule: Q04DX003 (ip), vehicle: saline with Tween-80): 3 of 6 | survivor count [4]: 3 of 6 | survivor count [5]: 2 of 6

O=C1C2CCC1C(N1CCCC1)CC2 (stereo unspecified)
survivor count (dose: 300.0 mg/kg/injection, schedule: Q01DX001 (ip), vehicle: saline): 0 of 6

CCOC(=O)NCC(CCN(C)CC)(c1cccc2ccccc12)C(C)C (stereo unspecified)
survivor count (dose: 50.0 mg/kg/injection, schedule: Q01DX009 (ip), vehicle: saline with Tween-80): 0 of 6 | survivor count [12]: 1 of 6 | survivor count [13]: 0 of 6 | survivor count [11]: 0 of 6

O=C(Nc1ccc(Nc2ccccc2)cc1)Nc1cccc(F)c1
survivor count [10]: 6 of 6

CCOC(=O)NC(CCN(C)C)(c1cccc2ccccc12)C(C)C (stereo unspecified)
survivor count [13]: 0 of 6 | survivor count [14]: 2 of 3 | survivor count [11]: 0 of 6

Nc1nccnc1C(=O)NOCc1ccccc1
T/C [14]: 130 % of control

S=C=NCCCCCCN=C=S
survivor count (dose: 100.0 mg/kg/injection, schedule: Q04DX002 (ip), vehicle: saline): 0 of 3 | survivor count (dose: 200.0 mg/kg/injection, schedule: Q04DX002 (ip), vehicle: saline): 2 of 3 | survivor count (dose: 400.0 mg/kg/injection, schedule: Q04DX002 (ip), vehicle: saline): 0 of 3

CCCNC(=O)Oc1ccccc1C(=O)NCO
survivor count (dose: 400.0 mg/kg/injection, schedule: Q01DX009 (ip), vehicle: other): 0 of 6

C=CC(=O)Nc1ccc(Cl)cc1
survivor count [8]: 2 of 6 | survivor count [9]: 1 of 6

CN(C)CCN1C(=O)CC(c2ccccc2)Sc2ccccc21 (stereo unspecified)
survivor count [1]: 1 of 6 | survivor count [6]: 3 of 4 | survivor count [15]: 0 of 6 | survivor count [2]: 0 of 4 | survivor count [16]: 0 of 6 | survivor count [3]: 0 of 4

[N-]=[N+]=C1C=CC=C1C(=O)O
survivor count [12]: 2 of 6 | survivor count [13]: 0 of 6 | survivor count [11]: 0 of 6

Nc1nc2c(nnn2C2OC(COP(=O)(O)O)C(O)C2O)c(=O)[nH]1 (stereo unspecified)
T/C (dose: 40.0 mg/kg/injection, schedule: Q01DX Z (ip), vehicle: other): 126 % of control

O=C(C[n+]1ccccc1)c1ccc(Br)cc1
survivor count (dose: 25.0 mg/kg/injection, schedule: Q01DX009 (ip), vehicle: saline): 3 of 6 | survivor count [17]: 0 of 6 | survivor count [15]: 0 of 6 | survivor count [18]: 1 of 6 | survivor count [16]: 0 of 6

CCOC(=O)[CH2][Sn]([Br])([Br])[CH2]C(=O)OCC
survivor count [19]: 2 of 3

CC1(C)c2ccccc2N(CCCN)c2ccccc21
survivor count [17]: 2 of 4 | survivor count [18]: 0 of 4

C/C(=N\NC(N)=S)c1ccccc1
survivor count (dose: 40.0 mg/kg/injection, schedule: Q01DX009 (ip), vehicle: Klucel (hydroxypropylcellulose) (HPC)): 3 of 6

CC[As](=O)(O)CC
survivor count [3]: 0 of 6

C=C(Br)CN(CC)CC
survivor count (dose: 50.0 mg/kg/injection, schedule: Q01DX009 (ip), vehicle: Klucel (hydroxypropylcellulose) (HPC)): 2 of 6 | survivor count [7]: 0 of 6 | survivor count [8]: 0 of 6 | survivor count [9]: 0 of 6

Cc1c(C(=O)O)nnn1-c1ccc(Cl)cc1Cl
survivor count [20]: 2 of 3

Cc1ccc(S(=O)(O)=S)cc1.[Fe]
survivor count (dose: 150.0 mg/kg/injection, schedule: Q01DX001 (ip), vehicle: saline): 6 of 6

C=CCN(CC=C)c1nc(OC)nc(OC)n1
survivor count [4]: 0 of 6 | survivor count [5]: 0 of 6

CNc1ccc2cc(Br)ccc2c1
survivor count [7]: 2 of 6

OC1CCN(C2(c3ccccc3)CCCCC2)CC1
survivor count [20]: 2 of 3

Cc1ncc(CO)c(Cc2ccccc2N(C)C)c1O
survivor count [19]: 0 of 3

Nc1nc(N)c(N)c(Nc2ccc(O)cc2)n1
survivor count (dose: 200.0 mg/kg/injection, schedule: Q01DX Z (ip), vehicle: saline): 6 of 6
